The values that follow come from publication PMC5976579.

Results are given in words; binding and its absence hold for the method and conditions named. Binding seen in cells or lysates may run through a third protein. Some results given as binding are weak or reduced against the parent protein; the word gives no strength. Tags and fused reporters may be left off the sequences shown.

What all share (test): co-IP; Rlim -/y mouse ESCs transfected with N-terminal FLAG- and HA-tagged RNF12 (WT or XLID mutant); lysates subjected to FLAG immunoprecipitation, immunoblot with FLAG or HA antibodies
Assay [1] addresses human RNF12, wild type, N-terminally 3FLAG- or HA-tagged (human) (UniProt Q9NVW2).
In assay [2] the target is human RNF12 Y356C, N-terminally 3FLAG- or HA-tagged (human) (UniProt Q9NVW2).
Assay [3] addresses human RNF12 P587R, N-terminally 3FLAG- or HA-tagged (human) (UniProt Q9NVW2).
Assay [4] addresses human RNF12 R599C, N-terminally 3FLAG- or HA-tagged (human) (UniProt Q9NVW2).
Assay [5] concerns the target human RNF12 R387C, N-terminally 3FLAG- or HA-tagged (human) (UniProt Q9NVW2).

B1: human RNF12, wild type, N-terminally 3FLAG- or HA-tagged (enzyme, UniProt Q9NVW2 1-624)
chain: MENSDSNDKGSGDQSAAQRRSQMDRLDREEAFYQFVNNLSEEDYRLMRDNNLLGTPGESTEEELLRRLQQIKEGPPPQNSDENRGGDSSDDVSNGDSIIDWLNSVRQTGNTTRSGQRGNQSWRAVSRTNPNSGDFRFSLEINVNRNNGSQNSENENEPSARRSSGENVENNSQRQVENPRSESTSARPSRSERNSTEALTEVPPTRGQRRARSRSPDHRRTRARAERSRSPLHPMSEIPRRSHHSISSQTFEHPLVNETEGSSRTRHHVTLRQQISGPELLSRGLFAASGTRNASQGAGSSDTAASGESTGSGQRPPTIVLDLQVRRVRPGEYRQRDSIASRTRSRSQTPNNTVTYESERGGFRRTFSRSERAGVRTYVSTIRIPIRRILNTGLSETTSVAIQTMLRQIMTGFGELSYFMYSDSDSEPTGSVSNRNMERAESRSGRGGSGGGSSSGSSSSSSSSSSSSSSSSSSSSPSSSSGGESSETSSDLFEGSNEGSSSSGSSGARREGRHRAPVTFDESGSLPFLSLAQFFLLNEDDDDQPRGLTKEQIDNLAMRSFGENDALKTCSVCITEYTEGNKLRKLPCSHEYHVHCIDRWLSENSTCPICRRAVLASGNRESVV
B1: the binding entry in assay [1] is “binds”.

B2: human RNF12 Y356C, N-terminally 3FLAG- or HA-tagged (enzyme, UniProt Q9NVW2 1-624)
chain: MENSDSNDKGSGDQSAAQRRSQMDRLDREEAFYQFVNNLSEEDYRLMRDNNLLGTPGESTEEELLRRLQQIKEGPPPQNSDENRGGDSSDDVSNGDSIIDWLNSVRQTGNTTRSGQRGNQSWRAVSRTNPNSGDFRFSLEINVNRNNGSQNSENENEPSARRSSGENVENNSQRQVENPRSESTSARPSRSERNSTEALTEVPPTRGQRRARSRSPDHRRTRARAERSRSPLHPMSEIPRRSHHSISSQTFEHPLVNETEGSSRTRHHVTLRQQISGPELLSRGLFAASGTRNASQGAGSSDTAASGESTGSGQRPPTIVLDLQVRRVRPGEYRQRDSIASRTRSRSQTPNNTVTCESERGGFRRTFSRSERAGVRTYVSTIRIPIRRILNTGLSETTSVAIQTMLRQIMTGFGELSYFMYSDSDSEPTGSVSNRNMERAESRSGRGGSGGGSSSGSSSSSSSSSSSSSSSSSSSSPSSSSGGESSETSSDLFEGSNEGSSSSGSSGARREGRHRAPVTFDESGSLPFLSLAQFFLLNEDDDDQPRGLTKEQIDNLAMRSFGENDALKTCSVCITEYTEGNKLRKLPCSHEYHVHCIDRWLSENSTCPICRRAVLASGNRESVV
As to B2, the binding result in assay [2] is “binds”.

B3: human RNF12 P587R, N-terminally 3FLAG- or HA-tagged (enzyme, UniProt Q9NVW2 1-624)
chain: MENSDSNDKGSGDQSAAQRRSQMDRLDREEAFYQFVNNLSEEDYRLMRDNNLLGTPGESTEEELLRRLQQIKEGPPPQNSDENRGGDSSDDVSNGDSIIDWLNSVRQTGNTTRSGQRGNQSWRAVSRTNPNSGDFRFSLEINVNRNNGSQNSENENEPSARRSSGENVENNSQRQVENPRSESTSARPSRSERNSTEALTEVPPTRGQRRARSRSPDHRRTRARAERSRSPLHPMSEIPRRSHHSISSQTFEHPLVNETEGSSRTRHHVTLRQQISGPELLSRGLFAASGTRNASQGAGSSDTAASGESTGSGQRPPTIVLDLQVRRVRPGEYRQRDSIASRTRSRSQTPNNTVTYESERGGFRRTFSRSERAGVRTYVSTIRIPIRRILNTGLSETTSVAIQTMLRQIMTGFGELSYFMYSDSDSEPTGSVSNRNMERAESRSGRGGSGGGSSSGSSSSSSSSSSSSSSSSSSSSPSSSSGGESSETSSDLFEGSNEGSSSSGSSGARREGRHRAPVTFDESGSLPFLSLAQFFLLNEDDDDQPRGLTKEQIDNLAMRSFGENDALKTCSVCITEYTEGNKLRKLRCSHEYHVHCIDRWLSENSTCPICRRAVLASGNRESVV
As to B3, the binding result in assay [3] is on record as “binds”.

B4: human RNF12 R599C, N-terminally 3FLAG- or HA-tagged (enzyme, UniProt Q9NVW2 1-624)
chain: MENSDSNDKGSGDQSAAQRRSQMDRLDREEAFYQFVNNLSEEDYRLMRDNNLLGTPGESTEEELLRRLQQIKEGPPPQNSDENRGGDSSDDVSNGDSIIDWLNSVRQTGNTTRSGQRGNQSWRAVSRTNPNSGDFRFSLEINVNRNNGSQNSENENEPSARRSSGENVENNSQRQVENPRSESTSARPSRSERNSTEALTEVPPTRGQRRARSRSPDHRRTRARAERSRSPLHPMSEIPRRSHHSISSQTFEHPLVNETEGSSRTRHHVTLRQQISGPELLSRGLFAASGTRNASQGAGSSDTAASGESTGSGQRPPTIVLDLQVRRVRPGEYRQRDSIASRTRSRSQTPNNTVTYESERGGFRRTFSRSERAGVRTYVSTIRIPIRRILNTGLSETTSVAIQTMLRQIMTGFGELSYFMYSDSDSEPTGSVSNRNMERAESRSGRGGSGGGSSSGSSSSSSSSSSSSSSSSSSSSPSSSSGGESSETSSDLFEGSNEGSSSSGSSGARREGRHRAPVTFDESGSLPFLSLAQFFLLNEDDDDQPRGLTKEQIDNLAMRSFGENDALKTCSVCITEYTEGNKLRKLPCSHEYHVHCIDCWLSENSTCPICRRAVLASGNRESVV
On to B4, for which, in assay [4], the binding result is on record as “binds”.

B5: human RNF12 R387C, N-terminally 3FLAG- or HA-tagged (enzyme, UniProt Q9NVW2 1-624)
chain: MENSDSNDKGSGDQSAAQRRSQMDRLDREEAFYQFVNNLSEEDYRLMRDNNLLGTPGESTEEELLRRLQQIKEGPPPQNSDENRGGDSSDDVSNGDSIIDWLNSVRQTGNTTRSGQRGNQSWRAVSRTNPNSGDFRFSLEINVNRNNGSQNSENENEPSARRSSGENVENNSQRQVENPRSESTSARPSRSERNSTEALTEVPPTRGQRRARSRSPDHRRTRARAERSRSPLHPMSEIPRRSHHSISSQTFEHPLVNETEGSSRTRHHVTLRQQISGPELLSRGLFAASGTRNASQGAGSSDTAASGESTGSGQRPPTIVLDLQVRRVRPGEYRQRDSIASRTRSRSQTPNNTVTYESERGGFRRTFSRSERAGVRTYVSTIRIPICRILNTGLSETTSVAIQTMLRQIMTGFGELSYFMYSDSDSEPTGSVSNRNMERAESRSGRGGSGGGSSSGSSSSSSSSSSSSSSSSSSSSPSSSSGGESSETSSDLFEGSNEGSSSSGSSGARREGRHRAPVTFDESGSLPFLSLAQFFLLNEDDDDQPRGLTKEQIDNLAMRSFGENDALKTCSVCITEYTEGNKLRKLPCSHEYHVHCIDRWLSENSTCPICRRAVLASGNRESVV
Take B5: the binding entry in assay [5] is “binds”.
